Measured values as given in paper PMC12193794.
Results are given in words; binding and its absence hold for the method and conditions named. Binding seen in cells or lysates may run through a third protein. Some entries that bind do so weakly or less than the wild type.

By UniProt entry, the sequences of proteins in these tests, tags left out. Residues count along the entry.
UniProt P07174, residues 30-425: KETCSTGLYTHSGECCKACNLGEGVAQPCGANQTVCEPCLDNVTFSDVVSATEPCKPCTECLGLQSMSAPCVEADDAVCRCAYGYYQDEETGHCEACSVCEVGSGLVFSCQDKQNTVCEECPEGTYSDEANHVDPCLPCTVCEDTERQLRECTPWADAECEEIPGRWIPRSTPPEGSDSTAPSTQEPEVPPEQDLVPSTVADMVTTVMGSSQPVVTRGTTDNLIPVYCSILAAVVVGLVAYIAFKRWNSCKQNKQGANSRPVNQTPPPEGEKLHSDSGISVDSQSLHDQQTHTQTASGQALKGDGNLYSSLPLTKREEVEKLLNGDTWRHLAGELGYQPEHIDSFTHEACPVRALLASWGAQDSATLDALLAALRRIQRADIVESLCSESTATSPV

Columns and labels:
[1] = biological target: p75 neurotrophin receptor (p75^NTR) (rat (endogenous in primary bladder URO and SMC of Sprague-Dawley rats)) (UniProt P07174); assay: co-IP; lysate (RIPA) of primary rat detrusor smooth muscle cells (SMC); 200-400 ug protein precipitated overnight at 4 °C with anti-p75^ICD rabbit antibody and protein G agarose, blot for TRAF6; cells with or without THX-B (5 ug/mL) preincubation and LPS (100 ng/mL), same incubation conditions as for URO
[2] = biological target: p75 neurotrophin receptor (p75^NTR) (rat (endogenous in primary bladder URO and SMC of Sprague-Dawley rats)) (UniProt P07174); assay: co-IP; lysate (RIPA) of primary rat urothelial cells (URO); 200-400 ug protein precipitated overnight at 4 °C with anti-p75^ICD rabbit antibody and protein G agarose, blot for TRAF6; cells with or without THX-B (5 ug/mL) preincubation and LPS (100 ng/mL, 5 min)

binding [1]: binds | binding [2]: binds
B1: tumor necrosis factor receptor-associated factor 6 (TRAF6) (protein, UniProt B5DF45 1-530)
chain: MSLLNCENSCASSQSSSDCCAAMANSCSAAMKDDSVSGCVSTGNLSSSFMEEIQGYDVEFDPPLESKYECPICLMALREAVQTPCGHRFCKACITKSIRDAGHKCPVDNEILLENQLFPDNFAKREILSLTVKCPNKGCVQKMELRHLEDHQVHCEFALVICPQCQRFFQKCQINKHIIEDCPRRQVSCVNCAVPMPYEEKEIHDQSCPLANIICEYCGTILIREQMPNHYDLDCPTAPVPCTFSVFGCHEKMQRNHLARHLQENTQLHMRLLAQAVHNVNLSLRPCDASSPSRGCRPEDPNYEETVKQLEGRLVRQDHQIRELTAKMETQSMHVSELKRTIRSLEDKVAEMEAQQCNGIYIWKIGNFGMHLKSQEEERPVVIHSPGFYTGRPGYKLCMRLHLQLPTAQRCANYISLFVHTMQGEYDSHLPWPFQGTIRLTILDQSEAVIRQNHEEVMDAKPELLAFQRPTIPRNPKGFGYVTFMHLEALRQGTFIKDDTLLVRCEVSTRFDMGGLRKEGFQPRSTDAGV
